# Assay results from the supplement of paper PMC12542422.
# Structures can show the parent of a compound that is named as a salt. ± gives the standard deviation of the averaged measurements. The list shows a part of the results. Values are raw readings; no control value is given beside them.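 HeLa cells imaged for ribosome-assembly readouts (ENP1 staining with or without export block, or inducible tagged ribosomal protein reporters); machine learning classified each cell's signal location against solvent (DMSO) controls. Hits exceeded the DMSO false-positive mean by five standard deviations, then were visually confirmed; three biological replicates.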
# Experiments:
# [1] = system: HeLa K (ENP1 immunofluorescence, +LMB); assay: fraction of cells with nucleolar or nucleolar/nucleoplasmic ENP1 signal (MainHitrate); higher = more cells with nucleolar/nuclear readout signal (for ENP1 -LMB: less RNAPI inhibition; for +LMB ENP1 and RP reporters: stronger nuclear/nucleolar retention, i.e. ribosome biogenesis defect); settings: concentration: 1 µM; treatment time: 6 h; ENP1 +LMB; leptomycin B: 20 nM, last 1.5 h
# [2] = system: HeLa K (ENP1 immunofluorescence, no LMB); assay: as above; settings: concentration: 1 µM; treatment time: 6 h; ENP1 -LMB; leptomycin B: none
# HeLa RPS2-YFP reporter = assay: fraction of reporter-positive cells with nuclear (nucleolar or nucleolar/nucleoplasmic) RPS2-YFP (MainHitrate); higher = more cells with nucleolar/nuclear readout signal (for ENP1 -LMB: less RNAPI inhibition; for +LMB ENP1 and RP reporters: stronger nuclear/nucleolar retention, i.e. ribosome biogenesis defect); settings: concentration: 1 µM; treatment time: 6 h
# HeLa RPL29-GFP reporter = assay: fraction of reporter-positive cells with nuclear (nucleolar or nucleolar/nucleoplasmic) RPL29-GFP (MainHitrate); higher = more cells with nucleolar/nuclear readout signal (for ENP1 -LMB: less RNAPI inhibition; for +LMB ENP1 and RP reporters: stronger nuclear/nucleolar retention, i.e. ribosome biogenesis defect); settings: concentration: 1 µM; treatment time: 6 h
SMILES,fraction [1],fraction [2],fraction of reporter-positive cells with nuclear (HeLa RPS2-YFP reporter),fraction of reporter-positive cells with nuclear (HeLa RPL29-GFP reporter)
CC/C(=C(/CC)c1ccc(O)cc1)c1ccc(O)cc1 [Diethylstilbestrol (Stilbestrol)],0.109 ± 0.17,0.993 ± 0.011,0.0984 ± 0.063,0.206 ± 0.061
COC(=O)[C@H](c1ccccc1Cl)N1CCc2sccc2C1 [Clopidogrel (Plavix)],0.0977 ± 0.12,0.9984 ± 0.0027,0.112 ± 0.062,0.209 ± 0.074
CC(=O)CCCCn1c(=O)c2c(ncn2C)n(C)c1=O [Pentoxifylline],0.216 ± 0.28,0.9988 ± 0.0021,0.128 ± 0.15,0.275 ± 0.2
CCC[C@H](N[C@@H](C)C(=O)N1[C@H](C(=O)O)C[C@@H]2CCCC[C@@H]21)C(=O)OCC [Perindopril Erbumine (Aceon)],0.0606 ± 0.049,0.997 ± 0.0053,0.107 ± 0.071,0.213 ± 0.067
C[C@H](CCC(=O)O)[C@H]1CC[C@H]2[C@@H]3CC[C@@H]4C[C@H](O)CC[C@]4(C)[C@H]3CC[C@]12C [Lithocholic acid],0.0699 ± 0.094,0.986 ± 0.024,0.133 ± 0.11,0.216 ± 0.094
C=C1CC[C@H](O)C/C1=C/C=C1\CCC[C@]2(C)[C@@H]([C@H](C)CCCC(C)(C)O)CC[C@@H]12 [Calcifediol],0.0607 ± 0.029,0.9981 ± 0.0034,0.117 ± 0.044,0.225 ± 0.056
CC1=C(C(=O)OC(C)C)C(c2cccc([N+](=O)[O-])c2)C(C(=O)OC2CN(C(c3ccccc3)c3ccccc3)C2)=C(N)N1 (configuration not stated) [Azelnidipine],0.11 ± 0.16,0.986 ± 0.025,0.121 ± 0.095,0.221 ± 0.065
Cc1ccc(Nc2nccc(N(C)c3ccc4c(C)n(C)nc4c3)n2)cc1S(N)(=O)=O [Pazopanib],0.168 ± 0.26,0.978 ± 0.038,0.154 ± 0.12,0.227 ± 0.053
CNNCc1ccc(C(=O)NC(C)C)cc1 [Procarbazine HCl (Matulane)],0.113 ± 0.15,0.99 ± 0.017,0.109 ± 0.096,0.212 ± 0.081
Nc1nc(O)c2ncn(CCC(CO)CO)c2n1 [Penciclovir],0.0778 ± 0.085,0.973 ± 0.046,0.118 ± 0.096,0.214 ± 0.051
CN(C)CCN(Cc1ccccc1)c1ccccn1 [Tripelennamine HCl],0.0652 ± 0.092,0.979 ± 0.037,0.11 ± 0.069,0.237 ± 0.049
Cc1cccc(N(C)C(=S)Oc2ccc3ccccc3c2)c1 [Tolnaftate],0.131 ± 0.18,0.9955 ± 0.0078,0.149 ± 0.1,0.244 ± 0.064
Nc1nc2n[nH]nc2c(=O)[nH]1 [Azaguanine-8],0.0973 ± 0.14,0.989 ± 0.019,0.109 ± 0.084,0.2 ± 0.077
CCCCN(CCCC)CCCOC(=O)c1ccc(N)cc1 [Butacaine],0.0484 ± 0.051,0.994 ± 0.011,0.167 ± 0.18,0.308 ± 0.26
"Cn1c(CNc2ccc(C(=N)N)cc2)nc2cc(C(=O)N(CCC(=O)O)c3ccccn3)ccc21 [BIBR 953 (Dabigatran etexilate, Pradaxa)]",0.133 ± 0.19,0.99 ± 0.017,0.102 ± 0.086,0.239 ± 0.088
CC(C)(C)c1nc(-c2cccc(NS(=O)(=O)c3c(F)cccc3F)c2F)c(-c2ccnc(N)n2)s1,0.112 ± 0.15,0.996 ± 0.0069,0.144 ± 0.1,0.243 ± 0.12
C[N+](C)(C)CC(O)CC(=O)[O-] (racemic) [DL-Carnitine hydrochloride],0.136 ± 0.2,0.986 ± 0.025,0.106 ± 0.093,0.216 ± 0.096
CCCCCCCCCCCCCCCC[N+](C)(C)C [Cetrimonium Bromide],0.0283 ± 0.024,0.99 ± 0.017,0.129 ± 0.12,0.213 ± 0.049
Nc1nc(F)nc2c1ncn2[C@@H]1O[C@H](CO)[C@@H](O)[C@@H]1O [Fludarabine (Fludara)],0.0708 ± 0.042,0.9982 ± 0.003,0.106 ± 0.089,0.199 ± 0.035
CN(C)CCC=C1c2ccccc2CCc2ccccc21 [Amitriptyline HCl],0.0649 ± 0.09,0.992 ± 0.014,0.119 ± 0.1,0.207 ± 0.047
CN(C)[C@@H](CCOc1cccc2ccccc12)c1ccccc1 [Dapoxetine hydrochloride (Priligy)],0.113 ± 0.15,0.992 ± 0.013,0.157 ± 0.083,0.219 ± 0.083
O=c1cc[nH]c(=S)[nH]1 [2-Thiouracil],0.0801 ± 0.11,0.992 ± 0.013,0.124 ± 0.099,0.209 ± 0.033
NCCS(=O)(=O)O [Taurine],0.142 ± 0.22,0.991 ± 0.015,0.111 ± 0.073,0.214 ± 0.081
Cc1ccc(C(=O)c2ccc(CC(=O)O)n2C)cc1 [Tolmetin Sodium],0.155 ± 0.18,0.9969 ± 0.0054,0.178 ± 0.18,0.295 ± 0.24
COc1cc(OC)c(C(=O)CCCN2CCCC2)c(OC)c1 [Buflomedil HCl],0.0613 ± 0.08,0.977 ± 0.04,0.121 ± 0.088,0.221 ± 0.048
CC(C)[C@H](N)C(=O)OCC(CO)OCn1cnc2c(=O)nc(N)[nH]c21 (some centres not stated) [valganciclovir hydrochloride],0.059 ± 0.07,0.994 ± 0.01,0.101 ± 0.069,0.218 ± 0.032
CN(C)CC/C=C1/c2ccccc2COc2ccc(CC(=O)O)cc21 [Olopatadine hydrochloride (Opatanol)],0.0896 ± 0.12,0.994 ± 0.011,0.093 ± 0.068,0.239 ± 0.072
C[C@@H](CN1CC(=O)NC(=O)C1)N1CC(=O)NC(=O)C1 [Dexrazoxane Hydrochloride],0.141 ± 0.16,0.9972 ± 0.0048,0.101 ± 0.054,0.226 ± 0.079

# Only fraction of reporter-positive cells with nuclear (HeLa RPL29-GFP reporter) and fraction of reporter-positive cells with nuclear (HeLa RPS2-YFP reporter) (2 entries from above):
SMILES,fraction of reporter-positive cells with nuclear (HeLa RPL29-GFP reporter),fraction of reporter-positive cells with nuclear (HeLa RPS2-YFP reporter)
C[C@H](CCC(=O)O)[C@H]1CC[C@H]2[C@@H]3CC[C@@H]4C[C@H](O)CC[C@]4(C)[C@H]3CC[C@]12C [Lithocholic acid],0.216 ± 0.094,0.133 ± 0.11
Cc1cccc(N(C)C(=S)Oc2ccc3ccccc3c2)c1 [Tolnaftate],0.244 ± 0.064,0.149 ± 0.1
